Assay results: PubChem BioAssay AID504467 (National Center for Advancing Translational Sciences (NCATS), 2011)
Among all 330,000 compounds or so, about 7,700 (2.3%) were called active. This list was built around the results that the source calls inconclusive (neither active nor inactive); the mix of calls is not that of the screen. Calls follow the shape of the dose curve; as a rule, active = well fitted inhibition curve with a large enough effect; inconclusive = small, poorly fitted or top-dose-only effect, or effect the other way; inactive = flat fitted curve, though single readings scatter. Where the call is inconclusive, the potency comes from a doubtful curve fit.

assay: qHTS screen for small molecules that inhibit ELG1-dependent DNA repair in human embryonic kidney (HEK293T) cells expressing luciferase-tagged ELG1; details: HEK293T ELG1-luciferase reporter, luminescence, 16 h, DNA damage induced by 5-fluorouridine; series mostly up to 46.1 µM; also: nearly all actives have a fitted effect of over 55% in size
Outline: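 Overnight (16 hr) co-exposure of 2,000 cells/well to 5-fluorouridine and compound at 37 °C preceded detection. Luciferase was quantified via ONE-Glo luminescence; loss of signal denotes inhibition.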
Potency is read from the fitted curve at half-maximal effect.

Compound | Potency
Cc1cc(C)c(NC(=O)C2CC(=O)N(C3CCCC3)C2)c(C)c1 (stereo not drawn) | inconclusive: 8.2 µM [activator, partial curve]
Cc1ccc(-n2ncc(C#N)c2/N=C/N2CCOCC2)cc1 | inconclusive: 1.12 µM [inhibitor, partial curve, poor fit]
CC(=O)N1CCc2cc(N=NC3=C(O)CC(C)(C)CC3=O)ccc21 | inconclusive: 8.2 µM [activator, partial curve]
NC(=O)COC(=O)c1c2c(nc3ccccc13)CCC2 | inconclusive: 32.6 µM [activator, partial curve, poor fit]
O=C(COc1ccc(F)cc1)Nc1cc(S(=O)(=O)N2CCCCC2)ccc1N1CCCCC1 | inconclusive: 25.9 µM [inhibitor, single point]
CNC(=S)N(Cc1ccc(OC)cc1)Cc1cc2cccc(C)c2[nH]c1=O | inconclusive: 16.4 µM [inhibitor, partial curve, poor fit]
O=C(O)/C=C/C(=O)Nc1ccc(NC(=O)c2ccccc2)c(Cl)c1 | inconclusive: 29.1 µM [activator, single point]
Cc1cccc(NC(=O)CSc2nnc(-c3ccco3)n2CC2CCCO2)n1 (stereo not drawn) | inactive
COc1ccc(/C=C/c2ccc(=O)n(Cc3ccccc3)n2)cc1 | inconclusive: 29.1 µM [inhibitor, single point]
OCC1OC(Oc2c[nH]c3ccccc23)C(O)C(O)C1O (stereo not drawn) | inactive
O=C(O)C1=C[C@@H](c2coc3ccccc3c2=O)C[C@@H](OCCCCO)O1 | inconclusive: 14.6 µM [activator, partial curve, poor fit]
O=C(Cc1ccccc1F)NCC(c1ccco1)N1CCCCC1 (stereo not drawn) | inactive
COc1ccccc1/C=C/C(=O)NC(=S)Nc1ccc(S(=O)(=O)N(C)c2ccccc2)cc1 | inactive
CCCNC(=O)c1ccccc1N1CCN(CCCCN2C(=O)C3CCCCN3C2=O)CC1 (stereo not drawn) | inconclusive: 8.91 µM [activator, partial curve, poor fit]
CNCc1ccccc1Sc1cccc2ccccc12 | inactive
COc1ccc(C(=O)COC(=O)c2ccc3c(c2)NC(=O)CS3)c(OC)c1 | inconclusive: 29.1 µM [inhibitor, single point]
Cc1nc2c3cnn(-c4ccc(C)c(C)c4)c3ncn2n1 | inconclusive: 5.17 µM [activator, partial curve]
Cc1cc(C)cc(OC(=O)CS(=O)c2ccc(C(F)(F)F)cc2[N+](=O)[O-])c1 (stereo not drawn) | inconclusive: 14.6 µM [activator, partial curve]
CN(C(=O)CSc1nnnn1-c1ccccc1)C1CCCCC1 | inconclusive: 14.6 µM [activator, partial curve, poor fit]
Cn1c(SC/C=C/c2ccccc2)nnc1-c1cccs1 | inconclusive: 16.4 µM [activator, single point]
CCn1cc(S(=O)(=O)CC(=O)Nc2cccc(C)c2)c2ccccc21 | inactive
CCOC(=O)c1c(C)[nH]c(C)c1C(=O)COC(=O)c1ccc(S(=O)(=O)C(F)F)cc1 | inconclusive: 11.6 µM [inhibitor, partial curve, poor fit]
CCCCC(c1nnnn1CC1CCCO1)N1CCN(c2cc(Cl)ccc2C)CC1 (stereo not drawn) | inconclusive: 32.6 µM [inhibitor, partial curve, poor fit]

An excerpt of the results above, as a working copy:
Compound | Potency
Cc1ccc(-n2ncc(C#N)c2/N=C/N2CCOCC2)cc1 | inconclusive: 1.12 µM [inhibitor, partial curve, poor fit]
CC(=O)N1CCc2cc(N=NC3=C(O)CC(C)(C)CC3=O)ccc21 | inconclusive: 8.2 µM [activator, partial curve]
NC(=O)COC(=O)c1c2c(nc3ccccc13)CCC2 | inconclusive: 32.6 µM [activator, partial curve, poor fit]

(continued)

Compound | Potency
Clc1ccccc1CSc1nnc(-c2ccncc2)o1 | inconclusive: 8.91 µM [activator, partial curve, poor fit]
c1ccc(CNc2nc(CN3CCOCC3)nc3scc(-c4ccccc4)c23)cc1 | inconclusive: 20.6 µM [inhibitor, partial curve]
CC1CCCCC1NC(=S)NC(=O)c1ccccc1Br (stereo not drawn) | inconclusive: 32.6 µM [activator, partial curve, poor fit]
CCC(=O)N1c2ccc(S(=O)(=O)N3CCCCC3)cc2CC1C (stereo not drawn) | inconclusive: 10.3 µM [activator, partial curve]
CC1Oc2ccccc2N(CC(=O)NCc2cccs2)C1=O (stereo not drawn) | inconclusive: 14.6 µM [activator, partial curve]
Nc1c(Cl)cc(Cl)cc1C(=O)OCC(=O)N1CCCC1 | inconclusive: 25.9 µM [activator, partial curve, poor fit]
COC(=O)[C@@]1(Cc2ccccc2)[C@H]2C(=O)N(Cc3ccccc3)C(=O)[C@H]2[C@H]2CN=C(SCc3ccc(C)cc3)N21 | inconclusive: 25.9 µM [inhibitor, partial curve, poor fit]
COC(=O)c1cc(S(=O)(=O)N2CCCCC2)c[nH]1 | inactive
CCC(=O)Nc1ccc(S(=O)(=O)Nc2cccnc2)cc1 | inactive
O=C1c2ccccc2C(=O)N1CCCCCCc1ccccc1 | inconclusive: 32.6 µM [activator, single point]
CCCc1nc(SCc2ccc(OCC)cc2)n[nH]1 | inactive
Nc1cccc2nc3ccccc3cc12 | active: 23.1 µM
COc1ccccc1C(=O)NCCn1cc(SCC(=O)Nc2cc(C)on2)c2ccccc21 | active: 23.1 µM
CCc1nc2ccccc2c(C(=O)OCC(=O)Nc2cccc(S(=O)(=O)N3CCOCC3)c2)c1C | inconclusive: 11.2 µM [inhibitor, partial curve, poor fit]
COc1ccc(C2/C=C\CN(S(=O)(=O)c3ccc(C)cc3)CC(=O)N2Cc2ccc(F)cc2)cc1 (stereo not drawn) | inactive
CSc1nnc(C(C)(C)C)c(=O)n1/N=C/c1ccc(C(C)C)cc1 | inconclusive: 29.1 µM [inhibitor, single point]
COc1ccc(OC)c(S(=O)(=O)NCC(c2ccc3c(c2)OCO3)N2CCOCC2)c1 (stereo not drawn) | inactive
Cc1cc(OCC(=O)Nc2ccc(N3CCN(C)CC3)cc2)ccc1Cl | inconclusive: 16.4 µM [activator, partial curve, poor fit]
O=C(N/N=C/c1ccc(C(F)(F)F)cc1)c1ccc(O)cc1 | inconclusive: 29.1 µM [activator, single point]
CCOC(=O)c1ccc(NC(=O)CNNC(=O)COc2ccccc2C)cc1 | inactive
Cc1ccc(C(=O)Nc2nnc(-c3cccs3)s2)cc1C | inconclusive: 4.61 µM [activator, partial curve]
Cc1cc(=O)[nH]c(SCc2nc3ncccn3c2Br)n1 | inconclusive: 15.8 µM [activator, single point]
O=C(CC(c1ccccc1)c1ccccc1O)NCc1ccccc1Cl (stereo not drawn) | inactive

Compound | Potency
O=C(Nc1ccccc1C(=O)N1CCCC1)c1ccc(Cl)cc1Cl | inactive
COc1cc(/C=N/N2C(C)CCCC2C)cc(Br)c1O (stereo not drawn) | inconclusive: 18.3 µM [inhibitor, partial curve, poor fit]
Cc1cc(C)nc(-n2nc(C)cc2NC(=O)CNCc2ccccc2)n1 | inactive
CC(=NNC(=O)c1cccc(S(=O)(=O)N2CCOCC2)c1)c1ccccc1 | inconclusive: 20.6 µM [activator, partial curve]
CC(NC(=O)Cn1ncc(Cl)c(Cl)c1=O)C12CC3CC(CC(C3)C1)C2 (stereo not drawn) | active: 18.4 µM
O=C(/C=C/c1ccc([N+](=O)[O-])cc1)N(c1ccccn1)C1CCCCC1 | inactive
CCOc1ccc2nc(N3CCCC(C(=O)NCCCN4C(C)CCCC4C)C3)sc2c1 (stereo not drawn) | inconclusive: 23.1 µM [activator, partial curve]
COc1cc(C(=O)OCC#N)ccc1OCc1c(C)noc1C | inconclusive: 5.8 µM [activator, full curve, poor fit]
COc1ccccc1NC(=O)c1cc(-c2ccc(C)o2)nc2ccccc12 | inactive
O=C(NCc1ccc(Cl)cc1)C1CCC(CNc2c(N3CCCC3)c(=O)c2=O)CC1 (stereo not drawn) | inconclusive: 5.8 µM [inhibitor, partial curve, poor fit]
Cc1csc(NC(=O)CSc2ccccc2F)n1 | inconclusive: 11.6 µM [activator, partial curve]
COc1ccc2nc(Nc3nc4cc5c(cc4s3)OCO5)sc2c1 | inconclusive: 23.1 µM [activator, single point]
COc1ccc(CN2CCN(C(=O)C3CCC(CNS(=O)(=O)c4ccccc4)CC3)CC2)c(OC)c1OC (stereo not drawn) | inconclusive: 14.6 µM [inhibitor, partial curve, poor fit]
Cc1cccc(C(=O)NC2CCN(CC(=O)NCc3ccccc3F)CC2)c1 | inactive
CC(=O)OC(C)(C)/C=C/C(=O)[C@](C)(O)C1[C@H](O)C[C@@]2(C)C3CC=C4C(C=C(O[C@@H]5O[C@H](CO)[C@@H](O)[C@H](O)[C@H]5O)C(=O)C4(C)C)[C@]3(C)C(=O)C[C@]12C (stereo partly drawn) | inconclusive: 18.3 µM [activator, partial curve]
COc1ccc(C(=O)Nc2nc3nccc(-c4ccccc4)n3n2)cc1 | inactive
C/C(=N\NC(=O)c1ccc(CN(C)S(=O)(=O)c2ccc(C)cc2)cc1)c1ccc(OC(F)F)cc1 | inconclusive: 3.26 µM [inhibitor, partial curve, poor fit]
O=C(NCc1ccncc1)c1cc(C(=O)C2CCCCC2)c[nH]1 | inconclusive: 29.1 µM [inhibitor, single point]
COc1cc2[nH]c(=S)nc(NCc3cccs3)c2cc1OC | inactive
COc1ccc(-c2cc(C(=O)NCc3ccco3)c3ccccc3n2)cc1 | inconclusive: 10.3 µM [inhibitor, partial curve, poor fit]
CCN1CCN(C(=O)c2ccc3c(c2)N(Cc2ccc(C)cc2)CCS3)CC1 | inactive
CN(Cc1ccccc1)S(=O)(=O)c1ccc(Cl)c(C(=O)OCC(=O)NC2CCS(=O)(=O)C2)c1 (stereo not drawn) | inconclusive: 4.61 µM [activator, partial curve]
